Data as given in patent US20070281320A1.

Target: Keyhole Limpet Hemocyanin, protein carrier
Test: ELISA; carrier of the thiolated-S1P laydown exchanged between BSA and KLH, no significant difference in binding

B1: murine anti-S1P monoclonal antibody Sphingomab (hybridoma clone 306D326.26, ATCC SD-5362) (antibody, IgG1, V domains shown)
VH: QAHLQQSDAELVKPGASVKISCKVSGFIFIDHTIHWMKQRPEQGLEWIGCISPRHDITKYNEMFRGKATLTADKSSTTAYIQVNSLTFEDSAVYFCARGGFYGSTIWFDFWGQGTTLTVS
VL: ETTVTQSPASLSMAIGEKVTIRCITTTDIDDDMNWFQQKPGEPPNLLISEGNILRPGVPSRFSSSGYGTDFLFTIENMLSEDVADYYCLQSDNLPFTFGSGTKLEIK
binding: no binding

These are yes or no findings as the source states them, for the method shown.
